Results taken from patent US20060134122A1, “Peptides of syndecan-1 for inhibition of cancer” (priority 2004, published 2006).
Some of these results come from one statement about several compounds together.

System: MDA-MB-231 and MB-435 cells
Assay: Migration across coated filters (modified Boyden chamber), MDA-MB-231 and MB-435
Format: cell-based, human
Details: S1ED pAb 250 μg/mL or GST-mS1ED 20 μM; 16 h, 10% FBS in lower chamber
Method: FIGS. 5A-B—Sdc-1ED Inhibitors disrupt αvβ3 integrin-dependent cell migration on VN. MDA-MB-231, MDA-MB-435 and MCF-7 cells in plating medium alone (black-filled) or in plating medium containing either 20 μM GST-mS1ED (open) or 250 μg/mL polyclonal mS1ED antibodies (gray-filled) were seeded on polycarbonate filters coated with either 10 μg/ml of VN (FIG. 5A) or FN (FIG. 5B) in a modified Boyden chamber. After 16 h, cells that migrated through the filter in response to 10% FBS in the lower chamber were quantified by colorimetric staining.
To test the role of the S1ED in αvβ3 integrin dependent signaling in another functional assay, cells were examined for their ability to migrate across VN or FN-coated filters in the presence or absence of S1ED pAb (250 μg/mL) or GST-mS1ED recombinant protein (20 μM). Migration of treated MDA-MB-231 and MB-435 cells across VN is suppressed 2- to 4-fold relative to untreated controls (FIG. 5A). MCF-7 cell migration across VN, which is αvβ1 dependent, is unaffected by either treatment.

B1: GST-mS1ED: recombinant mouse syndecan-1 ectodomain expressed as a fusion protein with GST (protein)
chain: QIVAVNVPPEDQDGSGDDSDNFSGSGTGALPDTLSRQTPSTWKDVWLLTATPTAPEPTSSNTETAFTSVLPAGEKPEEGEPVLHVEAEPGFTARDKEKEVTTRPRETVQLPITQRASTVRVTTAQAAVTSHPHGGMQPGLHETSAPTAPGQPDHQPPRVEGGGTSVIKEVVEDGTANQLPAGEGSGEQDFTFETSGENTAVAAVEPGLRNQPPVDEGATGASQSLLDRKEVLG
modifications: left off: a dimerising Fc or GST
notes: recombinant mouse syndecan-1 ectodomain expressed as a fusion protein with GST
  suppression of migration across VN relative to untreated controls: 2- to 4 fold
